# The list shows a part of the results. This data set is noisy: repeats of one test often differ as much as different tests do.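 The cells were human embryonic kidney cells carrying a Renilla luciferase gene, driven by the HSV-TK promoter, on a plasmid put in briefly by transfection. This is the first-round screen of about ten thousand compounds, looking for ones that raise reporter output.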
# System: HEK 293FT
# Assay: log relative Renilla luciferase luminescence (reporter expression vs reference, reference not stated) (log (base not stated)); higher = higher recombinant reporter expression
# Conditions: 10 µM; time after transfection 48 h
# Method: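 HEK 293FT cells transiently transfected with pRL-TK (Renilla luciferase) were treated with compounds at 10 uM and luminescence was read about 42 h later. Values are log relative Renilla luminescence (log base and reference not stated). Single-pass screen; 2080 natural products library.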
row,Structure (SMILES),log
1,CC1(C)C(=O)C=C[C@@]2(C)C1=C(O)C(=O)[C@]1(C)[C@@H]2[C@@H](O)CC2=C(c3ccoc3)C[C@@H](O)[C@]21C [Walsuronoid B],-0.494
2,COC(=O)C1=CO[C@@H](O[C@@H]2O[C@H](CO)[C@@H](O)[C@H](O)[C@H]2O)[C@@H]2[C@@H](C)[C@@H](O)C[C@H]12 [Loganin],-0.318
3,COc1cc2c(cc1OC)-c1cc3cc(OC)c(OC)cc3c[n+]1CC2 [Pseudopalmatine],0.393
4,C[C@@H]1[C@@H]2COC(=O)C[C@H]2C[C@@H]1O [Isoboonein],-0.0794
5,O=C(O)C1=CO[C@@H](O[C@@H]2O[C@H](CO)[C@@H](O)[C@H](O)[C@H]2O)[C@@H]2C(CO)=CC[C@H]12 [Geniposidic acid],-0.227
6,"COc1cc2oc(=O)cc(OC)c2c(C)c1OC [4,6,7-Trimethoxy-5-methylcoumarin]",-0.11
7,CO[C@H]1CC[C@@]2(C)C(=CC[C@H]3[C@@H]4CC[C@H]([C@H](C)N(C)C)[C@@]4(C)CC[C@@H]32)C1 [Pachyaximine A],-0.298
8,C=C1[C@@H]2CC[C@@H]3[C@](C2)(C(=O)OC[C@]32[C@@H]3CC[C@@]4(C)CO[C@H](O3)[C@H]42)[C@@H]1O [Sculponeatin K],-0.212
9,CC(C)=CCc1c(O[C@@H]2O[C@H](CO)[C@@H](O)[C@H](O)[C@H]2O)cc(O)c2c1O[C@H](c1ccc(O)cc1)[C@@H](O)C2=O [Phellamurin],-0.179
10,CC1(C)CC[C@]2(C(=O)O)CC[C@]3(C)C(=CC[C@@H]4[C@@]5(C)CC[C@H](O)C(C)(C)[C@@H]5CC[C@]43C)[C@@H]2C1 [Oleanolic acid],0.452
11,CC(=O)O[C@@H](CC1=C(O)C(=O)OC1)[C@]1(C)[C@H]2CCC=C(C)[C@]2(C)[C@@H](OC(=O)c2cccnc2)[C@H](OC(=O)c2ccccc2)[C@]1(C)O [Scutebata B],0.0279
12,C=C(C)[C@@H]1CC[C@]2(C)CC[C@]3(C)[C@H](CC[C@@H]4[C@@]5(C)CCC(=O)C(C)(C)[C@@H]5CC[C@]43C)[C@@H]12 [Lupenone],-0.0329
13,"CC(O)CC1CCCCN1C (single isomer, unassigned; (-)) [(-)-N-Methylsedridine]",0.19
14,"O=C1CC(c2c(O)cccc2O)Oc2cc(O)cc(O)c21 (centres undefined) [2',5,6',7-Tetrahydroxyflavanone]",0.0405
15,CC1(C)[C@H](O)CC[C@@]2(C)[C@@H]3CC[C@](C)([C@@H](O)CO[C@@H]4O[C@H](CO)[C@@H](O)[C@H](O)[C@H]4O)C=C3CC[C@H]12 [Darutoside],-0.144
16,COc1ccc(-c2oc3cc(OC)c(OC)c(O)c3c(=O)c2OC)cc1OC [Artemetin],-0.348
17,CCc1ncc(OC)c2c1[nH]c1ccccc12 [Crenatine],-0.129
18,COc1ccc(C2OCC3C(c4cc(OC)c(OC)c(OC)c4)OCC23)cc1OC (centres undefined) [Magnolin],0.218
19,CC(=O)Oc1cc(O)cc2oc(-c3ccccc3)cc(=O)c12 [5-Acetoxy-7-hydroxyflavone],-0.0137
20,COC(=O)/C(C)=C/C=C/[C@@]1(C)OC(=O)[C@]23CC=C(C)CC[C@]2(OC(C)=O)[C@H]1CC3 [Methyl pseudolarate A],-0.131

row,Structure (SMILES),log
1,C/C(=C\CCC(C)C1CCC2(C)C3=CCC4C(C)(C)C(=O)CCC4(C)C3=CCC12C)C(=O)O (centres undefined) [Tyromycic acid],0.085
2,C=C1[C@@H](OC(=O)/C=C/c2ccccc2)C[C@H](OC(C)=O)[C@@]2(C)[C@@H](OC(C)=O)[C@H](OC(C)=O)C3=C(C)C(=O)C[C@@H]([C@@H](OC(C)=O)[C@H]12)C3(C)C [Taxinine B],-0.0654
3,COc1cc(C(=O)O)ccc1O [Vanillic acid],-0.163
4,C=C(C)[C@@H]1CC[C@]2(C)CC[C@]3(C)[C@@H](CC[C@@H]4[C@@]5(C)[C@@H](O)C[C@H](O)C(C)(C)[C@@H]5CC[C@]43C)[C@@H]12 [Glochidiol],-0.104
5,CC(C)=CCc1c(O)ccc2c1O[C@H]1c3ccc(O)cc3OC[C@@H]21 [Phaseollidin],0.13
6,C/C(=C\CC[C@@H](C)[C@H]1CC[C@@]2(C)C3CCC4C(C)(C)C(=O)CC[C@]4(C)C3=CC[C@]12C)C(=O)O (some centres undefined) [Coccinic acid],-0.0197
7,C=C1C(=O)[C@]23C[C@H]1CC[C@H]2[C@@]1(CCCC(C)(C)[C@H]1CO)COC3=O [Sculponeatin N],-0.0547
8,C=C1[C@H]2CC[C@@]3([C@H]4C[C@H]5[C@@]6(CCC[C@@]5(C)C(=O)OC6O4)[C@@H]3C2)[C@H]1O [Spiramilactone B],0.0016
9,C=C(C)C(O)COc1c2occc2c(OC)c2ccc(=O)oc12 (centres undefined) [Neobyakangelicol],0.0251
10,CC(=O)c1cc2c(cc1O)OC(C)(C)C=C2 [Eupatoriochromene],-0.109
11,"CC1(C(=O)O)CCCC2(C)c3ccc(O)cc3CCC12 (centres undefined) [13-Hydroxy-8,11,13-podocarpatrien-18-oic acid]",-0.129
12,"CC[C@H](CC[C@@H](C)[C@H]1CC[C@H]2[C@@H]3CC(=O)C4=CC(=O)CC[C@]4(C)[C@H]3CC[C@]12C)C(C)C [Stigmast-4-ene-3,6-dione]",-0.179
13,COc1cc(-c2oc3c(OC)c(OC)c(OC)c(OC)c3c(=O)c2OC)cc(OC)c1OC [Exoticin],-0.227
14,C=C(C)[C@@H](O)[C@@H](O)c1c(OC)ccc2ccc(=O)oc12 [Murrangatin],-0.247
15,C=C1C(=O)O[C@@H]2C[C@H](C)[C@@]3(O)C[C@H](O)[C@@](C)(C[C@@H](OC(=O)C(C)C)[C@@H]12)O3 [Tagitinin A],0.0705
16,C=C(CO)[C@@H]1CC[C@@H]2[C@]3(CC[C@]4(C)[C@@H]([C@H](C)CC/C=C(\C)C=O)CC[C@@]24C)C[C@]13CCC(=O)O [Coronalolic acid],0.0016
17,O=c1c(O)c(-c2c(O)cccc2O)oc2cc(O)cc(O)c12 [Viscidulin I],-0.129
18,"OCC1CCC2(CCCCO2)O1 (centres undefined) [1,6-Dioxaspiro[4.5]decan-2-methanol]",0.146
19,COc1ccc(C[C@H]2C(=O)OC[C@@H]2[C@@H](O)c2ccc(OC)c(OC)c2)cc1OC [Tupichilignan A],0.142

# Shown with bars between the fields: part of the list above
row | Structure (SMILES) | log
7 | C=C1C(=O)[C@]23C[C@H]1CC[C@H]2[C@@]1(CCCC(C)(C)[C@H]1CO)COC3=O [Sculponeatin N] | -0.0547
18 | OCC1CCC2(CCCCO2)O1 (centres undefined) [1,6-Dioxaspiro[4.5]decan-2-methanol] | 0.146
19 | COc1ccc(C[C@H]2C(=O)OC[C@@H]2[C@@H](O)c2ccc(OC)c(OC)c2)cc1OC [Tupichilignan A] | 0.142

# Source: the supplement of paper PMC7024190
